The comparison behind a weaker result is the experiment's own reference, which may not be listed here. Tags and fusion partners may be left off the protein sequences shown. For at least one entry, the source does not settle the construct or the ends of the probe.
How the values were obtained:
[1] = biological target: T1, Rep WT (Escherichia coli) (UniProt P09980); assay: SPR; conditions: 3'-biotin, SPR: 25 mM Tris-HCl pH 7.6, 50 mM NaCl, 5 mM MgCl2, 0.25 mM DTT, 0.2 mM EDTA, 0.005% P20, 20 C, recombinant protein, residues 1-673, single-stranded DNA
T1 sequence (looked up): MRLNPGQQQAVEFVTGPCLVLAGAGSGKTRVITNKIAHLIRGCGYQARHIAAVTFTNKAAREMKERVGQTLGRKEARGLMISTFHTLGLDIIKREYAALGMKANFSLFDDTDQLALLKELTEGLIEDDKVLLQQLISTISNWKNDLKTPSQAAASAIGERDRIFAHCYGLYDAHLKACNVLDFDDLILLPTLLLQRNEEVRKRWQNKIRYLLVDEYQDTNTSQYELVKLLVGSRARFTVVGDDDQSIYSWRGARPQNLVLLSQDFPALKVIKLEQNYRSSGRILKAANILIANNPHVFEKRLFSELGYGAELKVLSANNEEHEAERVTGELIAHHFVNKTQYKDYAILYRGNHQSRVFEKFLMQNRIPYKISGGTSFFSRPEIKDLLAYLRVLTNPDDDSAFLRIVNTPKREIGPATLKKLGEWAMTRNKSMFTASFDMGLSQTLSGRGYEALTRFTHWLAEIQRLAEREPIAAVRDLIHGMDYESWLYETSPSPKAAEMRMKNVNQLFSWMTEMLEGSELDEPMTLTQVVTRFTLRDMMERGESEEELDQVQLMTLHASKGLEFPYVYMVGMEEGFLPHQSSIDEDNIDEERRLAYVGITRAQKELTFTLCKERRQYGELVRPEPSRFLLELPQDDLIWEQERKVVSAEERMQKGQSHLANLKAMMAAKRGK

[2] = biological target: T2, Rep ΔC33 (Escherichia coli) (UniProt P09980); assay: SPR; conditions: 200 uM ATP stimulates dissociation; 3'-biotin; SPR: 25 mM Tris-HCl pH 7.6, 50 mM NaCl, 5 mM MgCl2, 0.25 mM DTT, 0.2 mM EDTA, 0.005% P20, 20 C; recombinant protein; protein details: His6; single-stranded DNA
T2 sequence (looked up, limits assumed): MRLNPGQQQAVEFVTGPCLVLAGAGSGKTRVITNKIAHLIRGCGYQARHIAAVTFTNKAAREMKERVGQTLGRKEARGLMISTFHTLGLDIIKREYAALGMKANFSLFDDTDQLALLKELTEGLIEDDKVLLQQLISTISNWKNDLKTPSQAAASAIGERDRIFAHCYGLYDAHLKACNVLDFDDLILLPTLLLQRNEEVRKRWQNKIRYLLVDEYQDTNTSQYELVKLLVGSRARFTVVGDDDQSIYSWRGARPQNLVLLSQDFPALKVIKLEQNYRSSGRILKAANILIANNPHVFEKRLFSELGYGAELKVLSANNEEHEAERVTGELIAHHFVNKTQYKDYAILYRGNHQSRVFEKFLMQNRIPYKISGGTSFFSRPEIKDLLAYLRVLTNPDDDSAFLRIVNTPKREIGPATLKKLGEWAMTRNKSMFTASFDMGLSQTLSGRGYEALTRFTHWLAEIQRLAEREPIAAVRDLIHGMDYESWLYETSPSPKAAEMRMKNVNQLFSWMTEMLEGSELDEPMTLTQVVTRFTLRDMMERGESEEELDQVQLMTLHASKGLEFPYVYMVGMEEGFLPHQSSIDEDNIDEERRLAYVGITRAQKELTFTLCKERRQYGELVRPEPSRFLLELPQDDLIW

Sequence | binding result ([1]; 20 nM Rep, no nucleotide, faster dissociation than dT35) | binding result [2] | binding result ([1]; 200 uM ATP stimulates dissociation)
TTTTTTTTTT [3'-bio-dT10] | binds more weakly | – | –
TTTTTTTTTTTTTTTTTTTTTTTTTTTTTTTTTTT [3'-bio-dT35] | – | binds more weakly | binds more weakly

From paper PMC10123100, “Single-molecule visualization of stalled replication-fork rescue by the Escherichia coli Rep helicase” (Nucleic Acids Research, 2023)
